Measurements reported in PubChem BioAssay AID1347426 (Functional Genomics Laboratory (NCATS/FGL), 2020).
The whole screen tested about 31,000 sequences, of which about 1,400 (4.5%) were called active.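 The calls were made as follows: active = median seed-adjusted z-score above 1 or below -1; inactive = the rest.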 The list shows a part of the results.

experiment: Novel Modifiers of Survival Motor Neuron (SMN) Protein: Gene Identification via Genome-wide siRNA Screen; conditions: HEK293T SMN2-luciferase reporter, siRNA knockdown, 72 h; actives lie on both sides;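 also: luminescence tracks full-length SMN protein made from the SMN2 reporter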
Outline: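 Luciferase signal, proportional to full-length SMN made from an SMN2 cDNA reporter in stable HEK293T cells, was read 72 h after siRNA reverse transfection. Values were expressed as MAD scores after non-targeting-control normalization and log10 conversion; seed analysis flagged off-targets.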

Sequence | median seed-adjusted z-score
GCUAAACAGUUCGCAAGGATT against IGF2R | inactive: 0.274
GCAGGAUAGAAUCACUUGATT against LCMT1 | inactive: 0.821
GUACCUGCAUUGUAAACGATT against ATP13A3 | inactive: -0.619
CAGCCCUUGUUCUCAUCAATT against RORC | inactive: -0.243
CGAAGUUUUUAAUUACUCATT against PRKD1 | inactive: -0.323
GAUGGAUCCUUCAAUCAUATT against TAF2 | inactive: -0.243
CGCUACAUCUUCGACCUCUTT against BUD31 | inactive: 0.0554
GGUCCUUACUUCUUAUGGATT against ABHD3 | inactive: -0.126
GCAUAUAUCAAGAAUUCAATT against CLIC4 | inactive: -0.498
GGCUGUAGUUUGGAUGAUUTT against APLN | inactive: 0.0181
UUCUUUUCACGAUAACUUUTT against KRTAP9-3 | inactive: -0.184
GGAUUACCAUCACCGGAAATT against LSR | inactive: 0.306
GGAGCAUCUUCACACGCAATT against LCP2 | inactive: -0.826
CUACCUCUACUACUGGUUATT against LRRC17 | inactive: 0.0234
CCAUUGUAGUGACCCUAGUTT against FREM3 | inactive: -0.565
GGGUGAACAAAAUCAGUUUTT against DGKI | inactive: -0.417
CAUUACUUCGAGACACUAUTT against NGLY1 | inactive: -0.0453
GGCGCACGCUUUUCUCUAATT against ACTR1A | active: 1.28
GAACCAAGAUGAAUAGCAATT against HRH4 | inactive: 0.247
CAAAUGAGGGUGUAAUUGATT against SFRS6 | inactive: 0.378
ACAUCGGACCAGCACCUGATT against CA11 | inactive: -0.0741
CACCCGAAGUGAACCUAUUTT against CD200R2 | inactive: -0.772
GGGUCAUGGAGACAAACUATT against DHRS7B | inactive: 0.294

Sequence | median seed-adjusted z-score
CUUUGUCUAUGUCACCAUUTT against IMP5 | inactive: 0.559
GGAUCAUGGGUGUCAUCUATT against ABCC3 | inactive: -0.549
GCAUAUUGCUUGUAACUCATT against AKAP13 | inactive: 0.654
GAAUAAGUGACUAUCCAAATT against SENP2 | inactive: 0
GCAUGAUGGAUGUUGAUCATT against CCT5 | inactive: 0
GCAAAGAGCAAGAACCAAATT against ONECUT2 | inactive: -0.696
GGAGGGUACCUGUUUGGUUTT against CHI3L2 | inactive: 0.374
CUUCAUCUUUUACACCAUUTT against SLC35B2 | inactive: -0.313
CUGCCUAUGCUGCUAGGAATT against SDSL | inactive: 0
CCUCGACAGAUGAAACGCATT against MAP3K4 | inactive: 0.72
GGGUAGAGGAGUUAAAGAATT against ZC3H10 | inactive: -0.79
GAUUCUUGAUGGUAUCCAUTT against CDC2L6 | inactive: -0.31
GGACCGGAAAGGCGACAAATT against RPH3AL | inactive: 0.21
CCAUAGAUGUCACGUUUUUTT against CHRNA5 | inactive: 0
GAGAAAAUUUUGCACAGCATT against SLC25A23 | inactive: 0.325
GGAUCCUCUUAUCUCAAUATT against KLHL20 | inactive: -0.0828
CAAUGUCGAUGGACAGGAATT against ZNF446 | inactive: 0.0496
GAAUGACCCUGUACCCUAUTT against TAF2 | inactive: -0.243
AUCCGAUGGUGGUUACUGATT against MCOLN1 | inactive: -0.522
CCUCCCUGCUGGUACAGAUTT against SLC2A10 | inactive: -0.0407
GCAGACCAUUCACUACUAUTT against ST3GAL4 | inactive: 0.245
GAUCUUCUCAUAUUCGGGATT against SNX8 | inactive: 0.115
GAACCUGGAUCACAUAAUATT against DFFB | inactive: 0.242

Sequence | median seed-adjusted z-score
CCAGGUUGAUGAAGCUAAUTT against UBE2L3 | inactive: 0.378
UGAUGUACCCUAGCCCGCATT against SRF | inactive: -0.393
CUUGGAAACUAGACCCAAATT against ZNF135 | inactive: 0.038
UCAAAGACAUCGACAAGAATT against HTRA3 | inactive: 0.291
GGCUCUACCUGCACUAUGATT against TRIM50 | inactive: 0
ACUACUUCCUGAACCGGGATT against CD2BP2 | inactive: -0.455
AGCUCUAUCUGGUGUUUGATT against CDK3 | inactive: 0.000485
CAUUUUUCAUCGAAUAGUATT against PPIL6 | inactive: -0.215
GCCUUGUGCUGUCAAUAAATT against CRIP2 | inactive: -0.226
GCCGGAAACAAAUACGUGATT against ZNF677 | inactive: -0.441
GCUUGAGCCUGUUAAAACUTT against UTP14A | inactive: -0.366
CAUUAUCUCGUUUCCGGAATT against IFNGR2 | inactive: 0.148
CAGUCGAUGUCCAUGAAUATT against LRRN1 | inactive: -0.407
GAGCUUCAACUAACAGGAATT against NUPL2 | inactive: 0.134
GGACAAAGGCUGACAGACUTT against SNAI1 | inactive: 0.0196
GCUCGGACGCAAUCUGUGATT against TNFRSF4 | inactive: 0.311
GGGUUAAUGAUGCAAUGAATT against COQ9 | inactive: -0.787
GGAGGAUCCGAUGCAGAUATT against C1S | inactive: -0.561
GAAGCAGAGUGACUCCUUATT against GPR114 | inactive: 0.805
GAAGGAACCUUUUGCGGCATT against LHX9 | inactive: 0.157
UCAUCGUCGUGGGCUGCAATT against RHOD | inactive: 0
GAAUCCAGCUGGACUAUGATT against SQRDL | inactive: 0.455
GCUAUGUUGAGUUACGUUATT against NDUFS3 | inactive: -0.54
